Experimental data from US5696239A (The Dow Chemical Company, priority 1995, dated 1997).

System: CC-46 monoclonal antibody
Test: Attachment of Y-90 complex to CC-46 monoclonal antibody (complexes per antibody)
Settings: CC-46 antibody, 40:1 complex to antibody, NaCNBH3

Nc1ccc(CC(CN(CCN(CC(=O)O)CC(=O)O)CC(=O)O)N(CC(=O)O)CC(=O)O)cc1 (centres unmarked) [ABDTPA, 1-(p-aminobenzyl)diethylenetriaminepentaacetic acid]
average complexes per antibody: 5.0 complexes per antibody

Nc1cc(CN(CCN(CC(=O)O)CC(=O)O)CC(=O)O)c(O)c(CN(CCN(CC(=O)O)CC(=O)O)CC(=O)O)c1 [Example 12]
average complexes per antibody: 5.4 complexes per antibody
